Assay results

From PubChem BioAssay record AID1053133 (Broad Institute, 2014).

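Vaccinia-infected cells with a two-color viral stage reporter; Venus fluorescence read on a plate reader; the cell line is not named here; timing not stated here. The test concentration is not given here. Percent change in Venus reporter signal; lower (more negative) values mean stronger inhibition of that viral stage.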

Values are in %. How 0% and 100% were set is not given here. Common to all entries: measured here: Venus reporter, other viral stage. Part of the compounds only, not a random draw; the main read-out is not listed here.

Result for C[C@H]1CCCCO[C@@H](CN(C)CC2CCCCC2)[C@@H](C)CN([C@@H](C)CO)C(=O)c2cc(NC(=O)C3CCCCC3)ccc2O1 was activity change (Venus) -61.2%.
Result for C[C@@H]1CN([C@@H](C)CO)C(=O)Cc2cc(NC(=O)c3ccncc3)ccc2O[C@@H]1CN(C)Cc1ccc(C(F)(F)F)cc1 was activity change (Venus) -43.14%.
Result for C/C=C/c1ccc2c(c1)O[C@@H](CN(C)C(=O)Nc1cccc(F)c1)[C@H](C)CN([C@H](C)CO)S2(=O)=O was activity change (Venus) -34.99%.
Result for CC(C)NC(=O)Nc1ccc2c(c1)C(=O)N([C@@H](C)CO)C[C@H](C)[C@H](CN(C)Cc1ccc(C(F)(F)F)cc1)OCCCC[C@@H](C)O2 was activity change (Venus) -48.59%.
Result for Cc1noc(C)c1S(=O)(=O)Nc1ccc2c(c1)C(=O)N([C@@H](C)CO)C[C@@H](C)[C@H](CN(C)S(=O)(=O)c1ccc(Cl)cc1)OCCCC[C@@H](C)O2 was activity change (Venus) -44.49%.
Result for C[C@H](C(=O)N(C)C[C@H]1OCc2ccccc2-c2c(n(C)c3ccccc23)C(=O)N([C@@H](C)CO)C[C@H]1C)c1ccccc1 was activity change (Venus) -48.22%.
Result for C[C@H](CO)N1C[C@H](C)[C@H](CN(C)C)Oc2c(NC(=O)Nc3ccc(C(F)(F)F)cc3)cccc2C1=O was activity change (Venus) -31.41%.
Result for N#Cc1cccc(-c2ccc(C3[C@@H]4CN(C(=O)c5ccccn5)C[C@H]3N4)cc2)c1 (some centres undefined) was activity change (Venus) -91.53%.
Result for COc1ccc(CN(C)C[C@H]2Oc3ccc(NS(=O)(=O)c4ccc(Cl)cc4)cc3CC(=O)N([C@H](C)CO)C[C@H]2C)cc1 was activity change (Venus) -29.48%.
Result for C[C@@H]1CN([C@H](C)CO)S(=O)(=O)c2ccc(C#Cc3ccc(F)cc3)cc2O[C@H]1CN(C)C(=O)CN(C)C was activity change (Venus) -72.59%.
Result for C[C@@H]1CCCCO[C@H](CN(C)Cc2ccc3c(c2)OCO3)[C@H](C)CN([C@H](C)CO)C(=O)c2cc(NC(=O)C3CCCCC3)ccc2O1 was activity change (Venus) -57.6%.
Result for COc1ccc(CNC(=O)N(C)C[C@H]2OCc3ccccc3-c3c(n(C)c4ccccc34)C(=O)N([C@@H](C)CO)C[C@@H]2C)cc1 was activity change (Venus) -34.06%.
Result for C[C@H]1CN([C@@H](C)CO)C(=O)Cc2cc(NC(=O)CCCCCC(=O)Nc3ccccc3N)ccc2O[C@H]1CN(C)Cc1ccc(Oc2ccccc2)cc1 was activity change (Venus) -56.43%.
Result for C[C@@H]1CCCCO[C@@H](CN(C)S(=O)(=O)c2ccccc2)[C@H](C)CN([C@H](C)CO)C(=O)c2cc(NC(=O)Cc3ccccc3)ccc2O1 was activity change (Venus) -44.11%.
Result for C[C@@H]1CCCCO[C@H](CN(C)Cc2ccc(C(F)(F)F)cc2)[C@@H](C)CN([C@@H](C)CO)C(=O)c2cc(NC(=O)CCC(F)(F)F)ccc2O1 was activity change (Venus) -56.19%.
Result for C[C@@H]1CN([C@@H](C)CO)S(=O)(=O)c2ccc(-c3ccccc3)cc2O[C@@H]1CN(C)C(=O)Cc1ccccc1 was activity change (Venus) -54.07%.
Result for Cc1ccc(S(=O)(=O)N(C)C[C@H]2Oc3cc(Br)ccc3S(=O)(=O)N([C@@H](C)CO)C[C@H]2C)cc1 was activity change (Venus) -36.39%.
Result for C[C@@H]1CN([C@@H](C)CO)C(=O)c2cccc(NC(=O)NC3CCCCC3)c2O[C@@H]1CN(C)Cc1ccc(Cl)c(Cl)c1 was activity change (Venus) -35.33%.
Result for C[C@@H]1CN([C@H](C)CO)C(=O)CCCn2nncc2CO[C@@H]1CN(C)Cc1ccc(-c2ccccc2)cc1 was activity change (Venus) -39.2%.
Result for Cc1ccc(S(=O)(=O)N(C)C[C@@H]2OCCCC[C@@H](C)Oc3ccc(N(C)C)cc3C(=O)N([C@H](C)CO)C[C@H]2C)cc1 was activity change (Venus) -33.38%.
Result for C[C@H]1CCCCO[C@H](CN(C)Cc2ccc3c(c2)OCO3)[C@@H](C)CN([C@@H](C)CO)C(=O)c2cc(NC(=O)C3CCCCC3)ccc2O1 was activity change (Venus) -51.67%.
Result for N#Cc1cccc(-c2ccc(C3[C@@H]4CN(C(=O)C5CCCC5)C[C@H]3N4)cc2)c1 (some centres undefined) was activity change (Venus) -69.31%.
Result for C[C@H]1CN([C@@H](C)CO)C(=O)c2cccc(NC(=O)Nc3ccccc3)c2O[C@@H]1CN(C)Cc1ccc(Oc2ccccc2)cc1 was activity change (Venus) -23.54%.
Result for COc1ccc(S(=O)(=O)Nc2ccc3c(c2)C(=O)N([C@H](C)CO)C[C@@H](C)[C@H](CN(C)Cc2ccc(C(F)(F)F)cc2)OCCCC[C@@H](C)O3)cc1 was activity change (Venus) -62.12%.
Result for COCC#Cc1ccc2c(c1)O[C@H](CN(C)Cc1ccc3c(c1)OCO3)[C@@H](C)CN([C@H](C)CO)S2(=O)=O was activity change (Venus) -34.36%.
Result for C[C@@H]1CCCCO[C@H](CN(C)Cc2ccccc2)[C@@H](C)CN([C@@H](C)CO)C(=O)c2cc(NC(=O)Nc3ccccc3)ccc2O1 was activity change (Venus) -64.56%.
Result for O=C(Nc1cccc(F)c1)N1CC(=O)N2[C@H](CO)[C@H](c3ccc(-c4ccccc4)cc3)[C@@H]2C1 was activity change (Venus) -25.56%.
Result for C[C@@H]1CN([C@@H](C)CO)C(=O)c2cc(C3=CCCCC3)cnc2O[C@H]1CN(C)Cc1cccc(F)c1 was activity change (Venus) -44.32%.
Result for O=C(c1ccccc1F)N1CC(=O)N2[C@H](CO)[C@@H](c3ccc(C#Cc4ccc(F)cc4)cc3)[C@H]2C1 was activity change (Venus) -47.86%.
Result for C[C@@H]1CN([C@H](C)CO)C(=O)c2cc(NC(=O)Nc3ccc(F)cc3)ccc2O[C@@H](C)CCCCO[C@H]1CN(C)S(=O)(=O)c1ccc(Cl)cc1 was activity change (Venus) -5.17%.
Result for CO[C@@H]1CN(C)C(=O)c2cc(NC(=O)c3nc4ccccc4s3)ccc2OC[C@@H](C)N(Cc2ccncc2)C[C@H]1C was activity change (Venus) -29.43%.
Result for C[C@H]1CN([C@@H](C)CO)C(=O)Cc2cc(NC(=O)Nc3ccc(C(F)(F)F)cc3)ccc2O[C@H]1CN(C)S(=O)(=O)c1cccs1 was activity change (Venus) -40.86%.
Result for C[C@H]1CCCCO[C@@H](CN(C)S(=O)(=O)c2ccccc2)[C@@H](C)CN([C@@H](C)CO)C(=O)c2cc(NC(=O)Cc3ccccc3)ccc2O1 was activity change (Venus) -39.61%.
Result for Cc1cccc(S(=O)(=O)N2CCCCN3[C@@H](CO)[C@@H](c4ccc(C#C[C@H](C)O)cc4)[C@@H]3C2)c1 was activity change (Venus) -50.52%.
Result for COc1cccc(NC(=O)N(C)C[C@H]2Oc3cc(-c4ccccc4F)ccc3S(=O)(=O)N([C@H](C)CO)C[C@H]2C)c1 was activity change (Venus) -53.66%.